Consider 11 targets from the supplement of paper PMC6411743.

Chains of the proteins cited; added tags and fusions are not shown. Lines headed by an entry give the natural chain unless they say otherwise; changes in a name come on top.
UniProt O15379: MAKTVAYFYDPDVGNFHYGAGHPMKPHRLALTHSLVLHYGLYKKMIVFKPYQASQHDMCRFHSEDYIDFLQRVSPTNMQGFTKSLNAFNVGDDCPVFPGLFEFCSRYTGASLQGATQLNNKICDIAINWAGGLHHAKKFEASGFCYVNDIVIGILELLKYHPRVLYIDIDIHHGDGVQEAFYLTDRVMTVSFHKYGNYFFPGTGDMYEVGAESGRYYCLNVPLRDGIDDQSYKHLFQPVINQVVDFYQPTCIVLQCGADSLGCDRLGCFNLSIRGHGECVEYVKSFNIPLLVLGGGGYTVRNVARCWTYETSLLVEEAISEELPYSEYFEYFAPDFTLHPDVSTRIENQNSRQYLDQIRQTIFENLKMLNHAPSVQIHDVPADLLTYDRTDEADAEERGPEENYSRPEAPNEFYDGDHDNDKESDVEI
UniProt O14929: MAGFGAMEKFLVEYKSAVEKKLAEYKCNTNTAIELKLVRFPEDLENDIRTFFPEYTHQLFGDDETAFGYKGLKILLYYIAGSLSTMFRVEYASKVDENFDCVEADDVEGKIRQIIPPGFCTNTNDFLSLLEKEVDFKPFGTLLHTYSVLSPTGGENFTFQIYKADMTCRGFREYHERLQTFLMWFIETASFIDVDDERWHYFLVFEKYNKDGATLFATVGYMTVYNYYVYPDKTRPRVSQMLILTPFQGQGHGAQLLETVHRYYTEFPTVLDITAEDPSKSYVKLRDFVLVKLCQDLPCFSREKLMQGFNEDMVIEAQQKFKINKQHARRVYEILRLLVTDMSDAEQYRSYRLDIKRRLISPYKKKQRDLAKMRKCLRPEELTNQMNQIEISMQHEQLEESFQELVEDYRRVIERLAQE
UniProt O14524: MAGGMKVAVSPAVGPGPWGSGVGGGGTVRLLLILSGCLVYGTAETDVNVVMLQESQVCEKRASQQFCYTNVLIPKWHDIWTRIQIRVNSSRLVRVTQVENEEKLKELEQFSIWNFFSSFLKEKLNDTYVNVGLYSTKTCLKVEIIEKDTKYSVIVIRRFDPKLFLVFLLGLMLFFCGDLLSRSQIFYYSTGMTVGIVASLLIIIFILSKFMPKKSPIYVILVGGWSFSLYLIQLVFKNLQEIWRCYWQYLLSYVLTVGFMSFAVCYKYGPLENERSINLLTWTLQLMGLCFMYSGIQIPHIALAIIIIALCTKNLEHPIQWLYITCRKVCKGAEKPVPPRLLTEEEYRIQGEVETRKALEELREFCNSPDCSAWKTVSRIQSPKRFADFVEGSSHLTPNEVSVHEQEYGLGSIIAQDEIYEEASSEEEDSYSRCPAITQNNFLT
UniProt O43143: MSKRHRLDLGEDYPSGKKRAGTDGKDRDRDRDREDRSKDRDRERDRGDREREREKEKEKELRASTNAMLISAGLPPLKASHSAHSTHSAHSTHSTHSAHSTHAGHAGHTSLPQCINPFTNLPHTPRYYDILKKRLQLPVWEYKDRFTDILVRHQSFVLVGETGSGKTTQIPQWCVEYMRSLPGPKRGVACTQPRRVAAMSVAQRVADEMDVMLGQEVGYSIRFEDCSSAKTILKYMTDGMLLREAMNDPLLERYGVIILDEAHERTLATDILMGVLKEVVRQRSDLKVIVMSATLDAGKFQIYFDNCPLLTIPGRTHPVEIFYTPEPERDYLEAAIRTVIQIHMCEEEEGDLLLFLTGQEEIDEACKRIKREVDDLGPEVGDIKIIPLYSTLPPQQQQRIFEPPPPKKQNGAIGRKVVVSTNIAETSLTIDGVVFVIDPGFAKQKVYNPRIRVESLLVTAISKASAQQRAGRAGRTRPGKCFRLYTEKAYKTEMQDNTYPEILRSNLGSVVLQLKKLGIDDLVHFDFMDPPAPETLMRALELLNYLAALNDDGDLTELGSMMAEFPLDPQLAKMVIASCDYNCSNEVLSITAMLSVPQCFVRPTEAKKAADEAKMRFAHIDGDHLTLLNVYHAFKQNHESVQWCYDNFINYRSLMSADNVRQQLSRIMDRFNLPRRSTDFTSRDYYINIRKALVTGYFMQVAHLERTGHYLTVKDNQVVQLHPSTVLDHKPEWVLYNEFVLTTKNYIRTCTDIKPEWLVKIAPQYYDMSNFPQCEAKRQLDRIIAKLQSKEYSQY
UniProt O43257, whole entry: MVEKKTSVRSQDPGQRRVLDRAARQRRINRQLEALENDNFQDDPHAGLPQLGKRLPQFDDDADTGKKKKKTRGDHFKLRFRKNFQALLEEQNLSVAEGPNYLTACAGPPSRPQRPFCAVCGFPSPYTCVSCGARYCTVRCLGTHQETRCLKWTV
UniProt O14966: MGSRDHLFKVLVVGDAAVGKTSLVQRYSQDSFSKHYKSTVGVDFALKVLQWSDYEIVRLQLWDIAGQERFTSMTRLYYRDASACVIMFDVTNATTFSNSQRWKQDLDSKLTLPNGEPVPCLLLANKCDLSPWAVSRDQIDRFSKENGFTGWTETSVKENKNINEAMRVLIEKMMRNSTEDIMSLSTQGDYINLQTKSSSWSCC
UniProt O00232: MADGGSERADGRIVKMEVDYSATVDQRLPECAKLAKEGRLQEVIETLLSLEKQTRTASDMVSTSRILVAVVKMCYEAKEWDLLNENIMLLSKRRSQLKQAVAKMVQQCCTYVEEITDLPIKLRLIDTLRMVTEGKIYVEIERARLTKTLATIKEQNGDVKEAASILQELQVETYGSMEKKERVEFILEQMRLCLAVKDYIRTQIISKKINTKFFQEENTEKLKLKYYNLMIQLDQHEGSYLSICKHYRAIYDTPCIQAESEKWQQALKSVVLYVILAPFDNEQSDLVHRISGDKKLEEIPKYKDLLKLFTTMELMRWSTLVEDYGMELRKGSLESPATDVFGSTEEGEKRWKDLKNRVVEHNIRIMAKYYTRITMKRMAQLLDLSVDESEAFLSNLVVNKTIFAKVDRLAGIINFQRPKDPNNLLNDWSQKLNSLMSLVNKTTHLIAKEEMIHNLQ
UniProt O00764: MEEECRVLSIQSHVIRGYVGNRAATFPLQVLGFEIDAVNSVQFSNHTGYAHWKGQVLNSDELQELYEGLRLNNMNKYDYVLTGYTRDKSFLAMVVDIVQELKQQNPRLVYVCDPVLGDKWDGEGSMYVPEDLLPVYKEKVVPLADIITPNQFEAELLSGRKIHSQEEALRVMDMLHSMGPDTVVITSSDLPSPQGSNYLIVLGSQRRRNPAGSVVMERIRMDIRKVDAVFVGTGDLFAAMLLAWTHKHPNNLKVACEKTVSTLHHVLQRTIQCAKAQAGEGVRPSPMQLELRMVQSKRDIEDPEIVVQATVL
UniProt O43513: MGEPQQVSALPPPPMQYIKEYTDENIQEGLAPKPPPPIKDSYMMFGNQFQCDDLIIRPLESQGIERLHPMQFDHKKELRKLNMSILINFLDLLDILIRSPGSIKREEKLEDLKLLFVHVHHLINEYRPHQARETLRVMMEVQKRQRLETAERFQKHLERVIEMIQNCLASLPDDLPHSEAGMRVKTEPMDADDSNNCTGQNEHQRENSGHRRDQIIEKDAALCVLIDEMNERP
UniProt O00170: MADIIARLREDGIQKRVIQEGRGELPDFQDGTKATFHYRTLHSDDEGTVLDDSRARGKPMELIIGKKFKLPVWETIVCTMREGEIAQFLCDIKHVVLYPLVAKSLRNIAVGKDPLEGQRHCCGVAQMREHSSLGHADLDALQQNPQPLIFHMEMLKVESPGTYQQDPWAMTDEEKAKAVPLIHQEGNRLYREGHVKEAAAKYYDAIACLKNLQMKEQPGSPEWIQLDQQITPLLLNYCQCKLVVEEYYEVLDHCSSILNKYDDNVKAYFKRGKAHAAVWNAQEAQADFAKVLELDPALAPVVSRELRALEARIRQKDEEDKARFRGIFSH
UniProt O43772: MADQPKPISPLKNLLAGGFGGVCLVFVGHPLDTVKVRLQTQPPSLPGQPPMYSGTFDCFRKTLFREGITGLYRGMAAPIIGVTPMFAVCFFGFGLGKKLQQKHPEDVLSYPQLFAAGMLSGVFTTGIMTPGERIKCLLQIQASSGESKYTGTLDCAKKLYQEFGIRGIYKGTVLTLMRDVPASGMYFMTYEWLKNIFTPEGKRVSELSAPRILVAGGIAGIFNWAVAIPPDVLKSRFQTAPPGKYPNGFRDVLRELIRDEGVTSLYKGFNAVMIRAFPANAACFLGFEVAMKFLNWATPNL

± gives the standard deviation of the averaged measurements. The entries are a selection whose mix differs from that of the whole data set. Small differences around the control level are noise.

Compound in this test: Nc1ncnc2c1ncn2[C@@H]1O[C@H](COP(=O)(O)OP(=O)(O)OP(=O)(O)O)[C@@H](O)[C@H]1O [adenosine triphosphate]
Briefly: NP40-soluble protein abundance relative to vehicle (solubility fold change) (ratio); higher = more soluble protein in presence of ATP. The gist of the method:
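In three independent experiments, Jurkat crude lysate made by Dounce homogenisation was treated for 10 min at room temperature and then 3 min at 37 °C with eight concentrations ranging from 0.1 to 10 mM. It was then solubilised with 0.8% NP40 plus benzonase for 60 min at 4 °C and ultracentrifuged. The supernatant was TMT-labelled for LC-MS/MS, and each value is the fold change against the detergent-processed vehicle for the same replicate, using vsn-normalised intensities.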

Regarding UniProt O15379 and related entries, the NP40-soluble protein abundance (concentration: 0.1mM) was determined as 1.02 ± 0.023; the NP40-soluble protein abundance (concentration: 0.5mM) was 1.05 ± 0.036; the NP40-soluble protein abundance (concentration: 1mM) was 1 ± 0.019; the NP40-soluble protein abundance (concentration: 2mM) turned out to be 0.9928 ± 0.0062; the NP40-soluble protein abundance (concentration: 4mM) came out at 0.985 ± 0.04; the NP40-soluble protein abundance (concentration: 6mM) was 0.994 ± 0.053. Further, the NP40-soluble protein abundance runs as follows: (concentration: 8mM) 1.04 ± 0.044; (concentration: 10mM) 1.03 ± 0.065.

HAT1 (UniProt O14929): the NP40-soluble protein abundance reads like this: (concentration: 0.1mM) 1.02 ± 0.11; (concentration: 0.5mM) 1.02 ± 0.063; (concentration: 1mM) 1.01 ± 0.16; (concentration: 2mM) 0.995 ± 0.098; (concentration: 4mM) 0.957 ± 0.08; (concentration: 6mM) 0.895 ± 0.15. The NP40-soluble protein abundance (concentration: 8mM) came to 0.97 ± 0.09 and the NP40-soluble protein abundance (concentration: 10mM) turned out to be 0.955 ± 0.04.

Regarding UniProt O14524, the NP40-soluble protein abundance runs as follows: (concentration: 0.1mM) 0.85 ± 0.054; (concentration: 0.5mM) 0.906 ± 0.039; (concentration: 1mM) 0.824 ± 0.11; (concentration: 2mM) 0.887 ± 0.1; (concentration: 4mM) 0.841 ± 0.017; (concentration: 6mM) 0.899 ± 0.066. Moreover, the NP40-soluble protein abundance runs as follows: (concentration: 8mM) 0.872 ± 0.029; (concentration: 10mM) 0.896 ± 0.036.

With DHX15 (UniProt O43143), the NP40-soluble protein abundance reads like this: (concentration: 0.1mM) 1.09 ± 0.047; (concentration: 0.5mM) 1.25 ± 0.052; (concentration: 1mM) 1.25 ± 0.079; (concentration: 2mM) 1.24 ± 0.071; (concentration: 4mM) 1.24 ± 0.079; (concentration: 6mM) 1.24 ± 0.1. Besides, the NP40-soluble protein abundance by setting is: (concentration: 8mM) 1.33 ± 0.074; (concentration: 10mM) 1.29 ± 0.044.

Regarding ZNHIT1 (UniProt O43257), the NP40-soluble protein abundance reads like this: (concentration: 0.1mM) 1.06 ± 0.1; (concentration: 0.5mM) 1.04 ± 0.11; (concentration: 1mM) 1.12 ± 0.047; (concentration: 2mM) 1.16 ± 0.012; (concentration: 4mM) 1.27 ± 0.042; (concentration: 6mM) 1.3 ± 0.037. Further, the NP40-soluble protein abundance by setting is: (concentration: 8mM) 1.16 ± 0.037; (concentration: 10mM) 1.19 ± 0.073.

With UniProt O14966 and related entries, the NP40-soluble protein abundance reads like this: (concentration: 0.1mM) 1.04 ± 0.022; (concentration: 0.5mM) 1.03 ± 0.046; (concentration: 1mM) 0.995 ± 0.072; (concentration: 2mM) 1.01 ± 0.075; (concentration: 4mM) 0.958 ± 0.099; (concentration: 6mM) 1.03 ± 0.09. Also, the NP40-soluble protein abundance runs as follows: (concentration: 8mM) 0.99 ± 0.1; (concentration: 10mM) 1.01 ± 0.04.

In the case of PSMD12 (UniProt O00232), the NP40-soluble protein abundance was determined as 0.97 ± 0.037 (concentration: 0.1mM); 0.95 ± 0.023 (concentration: 0.5mM); 0.938 ± 0.063 (concentration: 1mM); 0.894 ± 0.035 (concentration: 2mM); 0.863 ± 0.015 (concentration: 4mM); 0.843 ± 0.025 (concentration: 6mM). The NP40-soluble protein abundance (concentration: 8mM) is 0.898 ± 0.031 and the NP40-soluble protein abundance (concentration: 10mM) amounted to 0.885 ± 0.035.

Consider PDXK (UniProt O00764), for which the NP40-soluble protein abundance reads like this: (concentration: 0.1mM) 1.05 ± 0.061; (concentration: 0.5mM) 1.02 ± 0.063; (concentration: 1mM) 1.02 ± 0.12; (concentration: 2mM) 0.987 ± 0.058; (concentration: 4mM) 1.01 ± 0.066; (concentration: 6mM) 0.935 ± 0.14. Moreover, the NP40-soluble protein abundance turned out to be 0.989 ± 0.058 (concentration: 8mM) and 0.981 ± 0.051 (concentration: 10mM).

In the case of MED7 (UniProt O43513), the NP40-soluble protein abundance was 1.04 ± 0.18 (concentration: 0.1mM); 1.12 ± 0.19 (concentration: 0.5mM); 1.23 ± 0.3 (concentration: 1mM); 1.17 ± 0.091 (concentration: 2mM); 1.09 ± 0.056 (concentration: 4mM); 1.2 ± 0.37 (concentration: 6mM). Moreover, the NP40-soluble protein abundance (concentration: 8mM) turned out to be 1.23 ± 0.26 and the NP40-soluble protein abundance (concentration: 10mM) came to 1.28 ± 0.34.

Consider AIP (UniProt O00170), for which the NP40-soluble protein abundance was determined as 0.963 ± 0.023 (concentration: 0.1mM) and 0.954 ± 0.033 (concentration: 0.5mM).

With SLC25A20 (UniProt O43772), the NP40-soluble protein abundance by setting is: (concentration: 0.1mM) 0.946 ± 0.072; (concentration: 0.5mM) 0.949 ± 0.094; (concentration: 1mM) 0.918 ± 0.088; (concentration: 2mM) 0.945 ± 0.037; (concentration: 4mM) 0.943 ± 0.012; (concentration: 6mM) 0.822 ± 0.099. Also, the NP40-soluble protein abundance by setting is: (concentration: 8mM) 0.884 ± 0.028; (concentration: 10mM) 0.974 ± 0.0095.
